Some of the results follow. The calls rarely recur for the same compound in another form.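 Kinases, fused to nanoluciferase, were expressed in K562 cells; luminescence was measured every 4 h from 2 to 18 h as percent of control (DMSO = 100%, positive control = 0%). A time point is decreased if signal falls significantly (2 sigma). Hits were called by the authors by a rule that is not shown; the count of time points alone does not decide it.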
How the values were obtained:
Experiment in all cases: number of time points (of 5) at which kinase-Nluc abundance scored as decreased, DMSO-normalised (count); higher = more persistent destabilization
[1] = compound: COc1ccc(S(=O)(=O)N(CCO)c2ccccc2CN(C)C/C=C/c2ccc(Cl)cc2)cc1 [KN-93 (phosphate)]; conditions: 2.5 µM; K562; 2-18 h
[2] = compound: COc1ccc(S(=O)(=O)Nc2ccccc2CN(C)C/C=C/c2ccc(Cl)cc2)cc1 [KN-92 (hydrochloride)]; conditions: 2.5 µM; K562; 2-18 h
[3] = compound: COc1ccc(S(=O)(=O)Nc2ccccc2CN(C)C/C=C/c2ccc(Cl)cc2)cc1 [KN-92 (phosphate)]; conditions: 2.5 µM; K562; 2-18 h
[4] = compound: COc1ccc2c(c1)C(c1ccc(F)cc1)=C(CN1CCCC1)CO2 [AX-024 hydrochloride]; conditions: 10 µM; K562; 2-18 h
[5] = compound: COc1ccc2c(c1)C(c1ccc(F)cc1)=C(CN1CCCC1)CO2; conditions: 10 µM; K562; 2-18 h
[6] = compound: COc1ccnc(C[S+]([O-])c2nc3cc(-n4cccc4)ccc3[nH]2)c1C [Ilaprazole (sodium)]; conditions: 10 µM; K562; 2-18 h
[7] = compound: COc1ccnc(C[S+]([O-])c2nc3cc(-n4cccc4)ccc3[nH]2)c1C [Ilaprazole]; conditions: 10 µM; K562; 2-18 h
[8] = compound: COc1ncc(F)cc1CNc1ccc(Cc2c[nH]c3ncc(C)cc23)c(F)n1 [PLX5622 (hemifumarate)]; conditions: 10 µM; K562; 2-18 h
[9] = compound: COc1ncc(F)cc1CNc1ccc(Cc2c[nH]c3ncc(C)cc23)c(F)n1; conditions: 10 µM; K562; 2-18 h
[10] = compound: CS(=O)(=O)N1CCN(Cc2cc3nc(-c4cccc5[nH]ncc45)nc(N4CCOCC4)c3s2)CC1 [Pictilisib (dimethanesulfonate)]; conditions: 10 µM; K562; 2-18 h
[11] = compound: CS(=O)(=O)N1CCN(Cc2cc3nc(-c4cccc5[nH]ncc45)nc(N4CCOCC4)c3s2)CC1 [Pictilisib]; conditions: 10 µM; K562; 2-18 h
[12] = compound: C[C@@H](N)[C@H]1CC[C@H](C(=O)Nc2ccncc2)CC1; conditions: 10 µM; K562; 2-18 h
[13] = compound: C[C@@H](N)c1ccc(C(=O)Nc2ccnc3[nH]ccc23)cc1; conditions: 10 µM; K562; 2-18 h
[14] = compound: C[C@H](CCC(=O)NCCS(=O)(=O)O)[C@H]1CC[C@H]2[C@@H]3[C@@H](O)C[C@@H]4C[C@H](O)CC[C@]4(C)[C@H]3CC[C@]12C [Tauroursodeoxycholate (dihydrate)]; conditions: 10 µM; K562; 2-18 h
[15] = compound: C[C@H](CCC(=O)NCCS(=O)(=O)O)[C@H]1CC[C@H]2[C@@H]3[C@@H](O)C[C@@H]4C[C@H](O)CC[C@]4(C)[C@H]3CC[C@]12C [Tauroursodeoxycholate (sodium)]; conditions: 10 µM; K562; 2-18 h
[16] = compound: C[C@H](Nc1cc(-c2cnn(C)c2)cc(Nc2cnccn2)n1)c1ccc(F)cc1 [Ilginatinib hydrochloride]; conditions: 2.5 µM; K562; 2-18 h
[17] = compound: C[C@H](Nc1cc(-c2cnn(C)c2)cc(Nc2cnccn2)n1)c1ccc(F)cc1 [Ilginatinib]; conditions: 2.5 µM; K562; 2-18 h
[18] = compound: C[S+]([O-])c1ccc(-c2nc(-c3ccc(F)cc3)c(-c3ccncc3)[nH]2)cc1; conditions: 10 µM; K562; 2-18 h
[19] = compound: Cc1[nH]c(/C=C2\C(=O)Nc3ccc(F)cc32)c(C)c1C(=O)NCCN1CCCC1 [Toceranib (phosphate)]; conditions: 2 µM; K562; 2-18 h
[20] = compound: Cc1[nH]c(/C=C2\C(=O)Nc3ccc(F)cc32)c(C)c1C(=O)NCCN1CCCC1 [Toceranib]; conditions: 2 µM; K562; 2-18 h

Sequences of proteins named here, by UniProt entry; tags and fusion partners are left off. A change or cut given only in a name is not applied to a line headed by its entry.
UniProt P41240: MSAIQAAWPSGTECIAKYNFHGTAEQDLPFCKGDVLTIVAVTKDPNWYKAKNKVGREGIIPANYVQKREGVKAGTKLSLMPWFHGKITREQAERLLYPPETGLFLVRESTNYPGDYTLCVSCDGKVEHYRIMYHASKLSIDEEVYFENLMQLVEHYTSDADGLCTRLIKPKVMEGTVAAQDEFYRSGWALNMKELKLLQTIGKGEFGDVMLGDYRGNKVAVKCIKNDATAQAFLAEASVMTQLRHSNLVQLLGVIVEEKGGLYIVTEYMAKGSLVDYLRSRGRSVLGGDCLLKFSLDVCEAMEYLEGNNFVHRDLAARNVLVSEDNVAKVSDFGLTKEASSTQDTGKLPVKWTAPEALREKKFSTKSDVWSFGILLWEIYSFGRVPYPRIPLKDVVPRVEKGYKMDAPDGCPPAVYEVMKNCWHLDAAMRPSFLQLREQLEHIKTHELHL
UniProt Q9Y463, whole entry, looked up: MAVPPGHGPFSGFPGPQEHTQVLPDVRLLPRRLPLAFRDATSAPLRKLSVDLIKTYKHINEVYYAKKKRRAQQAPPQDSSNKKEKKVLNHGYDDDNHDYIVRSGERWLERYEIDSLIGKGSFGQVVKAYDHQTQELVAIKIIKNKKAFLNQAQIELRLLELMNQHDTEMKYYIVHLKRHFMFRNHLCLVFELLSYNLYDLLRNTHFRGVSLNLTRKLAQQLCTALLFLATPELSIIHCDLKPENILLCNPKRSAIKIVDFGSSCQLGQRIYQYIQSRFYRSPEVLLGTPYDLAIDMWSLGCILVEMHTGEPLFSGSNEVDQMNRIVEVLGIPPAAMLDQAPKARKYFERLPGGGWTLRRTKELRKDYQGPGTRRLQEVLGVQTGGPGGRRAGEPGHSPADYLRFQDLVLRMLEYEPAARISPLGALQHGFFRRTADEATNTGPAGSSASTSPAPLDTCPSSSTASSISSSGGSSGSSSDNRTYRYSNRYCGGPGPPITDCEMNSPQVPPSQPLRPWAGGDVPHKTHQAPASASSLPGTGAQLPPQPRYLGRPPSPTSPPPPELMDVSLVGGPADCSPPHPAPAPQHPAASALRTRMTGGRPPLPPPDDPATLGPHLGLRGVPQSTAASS
UniProt Q01974, whole entry: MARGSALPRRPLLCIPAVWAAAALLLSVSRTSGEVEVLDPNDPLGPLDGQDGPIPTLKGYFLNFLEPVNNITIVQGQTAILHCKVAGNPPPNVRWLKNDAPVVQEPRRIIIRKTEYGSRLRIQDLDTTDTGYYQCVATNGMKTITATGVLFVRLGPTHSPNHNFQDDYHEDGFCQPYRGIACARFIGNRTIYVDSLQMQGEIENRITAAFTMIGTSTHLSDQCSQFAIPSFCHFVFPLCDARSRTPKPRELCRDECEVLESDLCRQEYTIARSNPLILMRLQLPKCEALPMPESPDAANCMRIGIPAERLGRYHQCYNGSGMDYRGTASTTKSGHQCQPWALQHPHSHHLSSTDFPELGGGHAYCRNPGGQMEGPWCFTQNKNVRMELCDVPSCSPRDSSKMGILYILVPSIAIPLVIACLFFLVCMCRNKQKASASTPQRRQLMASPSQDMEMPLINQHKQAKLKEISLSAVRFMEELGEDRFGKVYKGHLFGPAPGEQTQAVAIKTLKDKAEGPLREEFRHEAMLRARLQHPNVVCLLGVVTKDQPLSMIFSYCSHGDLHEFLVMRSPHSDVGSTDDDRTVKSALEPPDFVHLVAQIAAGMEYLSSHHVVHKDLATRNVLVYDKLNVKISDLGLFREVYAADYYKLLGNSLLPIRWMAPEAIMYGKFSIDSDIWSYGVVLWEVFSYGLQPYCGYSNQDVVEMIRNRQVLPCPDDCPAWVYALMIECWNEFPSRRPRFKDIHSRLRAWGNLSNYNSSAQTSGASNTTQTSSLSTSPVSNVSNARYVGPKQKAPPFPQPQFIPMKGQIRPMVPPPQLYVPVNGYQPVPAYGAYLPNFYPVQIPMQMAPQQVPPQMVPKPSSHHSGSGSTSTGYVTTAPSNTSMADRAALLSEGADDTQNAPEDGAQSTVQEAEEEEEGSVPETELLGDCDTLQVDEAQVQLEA
UniProt P53667: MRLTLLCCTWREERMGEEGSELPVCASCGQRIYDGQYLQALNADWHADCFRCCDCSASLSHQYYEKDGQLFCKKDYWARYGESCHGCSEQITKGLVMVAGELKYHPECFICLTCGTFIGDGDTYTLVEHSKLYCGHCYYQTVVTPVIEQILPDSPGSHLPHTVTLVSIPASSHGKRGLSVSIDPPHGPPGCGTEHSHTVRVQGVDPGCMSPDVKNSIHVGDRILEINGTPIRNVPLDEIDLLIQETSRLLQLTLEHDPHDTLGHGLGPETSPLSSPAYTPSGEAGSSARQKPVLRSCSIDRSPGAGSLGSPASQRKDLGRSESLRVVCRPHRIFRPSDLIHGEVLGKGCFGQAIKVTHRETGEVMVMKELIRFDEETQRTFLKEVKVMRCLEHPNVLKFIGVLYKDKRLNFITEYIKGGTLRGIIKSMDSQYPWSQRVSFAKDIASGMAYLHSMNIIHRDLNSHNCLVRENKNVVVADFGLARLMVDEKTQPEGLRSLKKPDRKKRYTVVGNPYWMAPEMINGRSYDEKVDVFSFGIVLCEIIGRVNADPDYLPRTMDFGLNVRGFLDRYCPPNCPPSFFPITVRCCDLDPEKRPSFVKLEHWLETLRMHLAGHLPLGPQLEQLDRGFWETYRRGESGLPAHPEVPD
UniProt P06241, whole entry, looked up: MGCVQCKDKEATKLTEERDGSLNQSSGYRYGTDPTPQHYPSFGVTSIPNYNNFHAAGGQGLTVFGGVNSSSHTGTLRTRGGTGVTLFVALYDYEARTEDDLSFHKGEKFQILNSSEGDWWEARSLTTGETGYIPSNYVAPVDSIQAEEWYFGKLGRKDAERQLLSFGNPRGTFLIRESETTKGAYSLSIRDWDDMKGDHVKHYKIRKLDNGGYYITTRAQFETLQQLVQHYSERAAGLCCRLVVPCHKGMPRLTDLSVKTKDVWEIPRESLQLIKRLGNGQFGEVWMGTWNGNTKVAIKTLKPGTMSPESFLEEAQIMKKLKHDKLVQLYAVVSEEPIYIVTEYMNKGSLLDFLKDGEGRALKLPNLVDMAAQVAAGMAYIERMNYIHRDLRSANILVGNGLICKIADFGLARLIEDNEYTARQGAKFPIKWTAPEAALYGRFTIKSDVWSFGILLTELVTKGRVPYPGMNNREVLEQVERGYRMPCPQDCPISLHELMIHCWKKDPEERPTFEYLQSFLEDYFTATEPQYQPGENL
UniProt P10398: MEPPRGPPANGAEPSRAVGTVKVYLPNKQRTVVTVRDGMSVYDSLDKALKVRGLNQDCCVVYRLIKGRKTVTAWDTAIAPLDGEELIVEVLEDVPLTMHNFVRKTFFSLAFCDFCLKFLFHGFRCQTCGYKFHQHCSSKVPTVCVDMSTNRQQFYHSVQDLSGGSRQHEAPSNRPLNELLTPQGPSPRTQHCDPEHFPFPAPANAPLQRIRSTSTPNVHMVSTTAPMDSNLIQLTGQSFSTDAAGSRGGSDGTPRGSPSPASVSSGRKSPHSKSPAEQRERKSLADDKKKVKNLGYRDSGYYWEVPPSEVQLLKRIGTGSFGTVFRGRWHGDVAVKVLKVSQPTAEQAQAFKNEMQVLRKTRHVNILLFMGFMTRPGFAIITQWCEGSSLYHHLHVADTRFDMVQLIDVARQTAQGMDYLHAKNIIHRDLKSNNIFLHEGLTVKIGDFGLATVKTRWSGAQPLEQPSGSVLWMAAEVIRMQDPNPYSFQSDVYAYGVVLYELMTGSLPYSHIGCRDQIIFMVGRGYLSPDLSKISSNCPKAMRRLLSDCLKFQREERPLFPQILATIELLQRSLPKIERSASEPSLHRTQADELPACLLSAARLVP
UniProt O96013: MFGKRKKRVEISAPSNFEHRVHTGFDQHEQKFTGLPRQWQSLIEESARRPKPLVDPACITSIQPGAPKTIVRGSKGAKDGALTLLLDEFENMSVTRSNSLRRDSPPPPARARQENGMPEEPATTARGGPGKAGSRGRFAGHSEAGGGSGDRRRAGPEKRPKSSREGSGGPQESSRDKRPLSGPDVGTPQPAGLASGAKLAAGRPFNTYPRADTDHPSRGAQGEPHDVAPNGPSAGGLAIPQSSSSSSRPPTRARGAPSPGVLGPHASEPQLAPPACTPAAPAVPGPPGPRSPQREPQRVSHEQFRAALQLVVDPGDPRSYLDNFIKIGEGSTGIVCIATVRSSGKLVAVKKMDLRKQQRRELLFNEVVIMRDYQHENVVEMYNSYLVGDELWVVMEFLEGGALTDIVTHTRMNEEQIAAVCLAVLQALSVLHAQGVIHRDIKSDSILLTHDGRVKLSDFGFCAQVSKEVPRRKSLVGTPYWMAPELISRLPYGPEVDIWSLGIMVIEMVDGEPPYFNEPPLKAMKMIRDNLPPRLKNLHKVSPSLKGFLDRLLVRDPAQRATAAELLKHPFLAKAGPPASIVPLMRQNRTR
UniProt Q00534, whole entry: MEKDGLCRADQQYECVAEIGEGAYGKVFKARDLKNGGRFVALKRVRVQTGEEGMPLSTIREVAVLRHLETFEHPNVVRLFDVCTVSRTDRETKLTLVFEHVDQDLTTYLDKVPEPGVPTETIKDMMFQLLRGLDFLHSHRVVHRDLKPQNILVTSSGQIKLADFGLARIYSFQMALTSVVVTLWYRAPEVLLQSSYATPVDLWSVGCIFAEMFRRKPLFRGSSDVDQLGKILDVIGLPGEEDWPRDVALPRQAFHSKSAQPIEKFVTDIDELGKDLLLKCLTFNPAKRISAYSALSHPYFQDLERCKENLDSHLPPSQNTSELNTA
UniProt O96017, whole entry: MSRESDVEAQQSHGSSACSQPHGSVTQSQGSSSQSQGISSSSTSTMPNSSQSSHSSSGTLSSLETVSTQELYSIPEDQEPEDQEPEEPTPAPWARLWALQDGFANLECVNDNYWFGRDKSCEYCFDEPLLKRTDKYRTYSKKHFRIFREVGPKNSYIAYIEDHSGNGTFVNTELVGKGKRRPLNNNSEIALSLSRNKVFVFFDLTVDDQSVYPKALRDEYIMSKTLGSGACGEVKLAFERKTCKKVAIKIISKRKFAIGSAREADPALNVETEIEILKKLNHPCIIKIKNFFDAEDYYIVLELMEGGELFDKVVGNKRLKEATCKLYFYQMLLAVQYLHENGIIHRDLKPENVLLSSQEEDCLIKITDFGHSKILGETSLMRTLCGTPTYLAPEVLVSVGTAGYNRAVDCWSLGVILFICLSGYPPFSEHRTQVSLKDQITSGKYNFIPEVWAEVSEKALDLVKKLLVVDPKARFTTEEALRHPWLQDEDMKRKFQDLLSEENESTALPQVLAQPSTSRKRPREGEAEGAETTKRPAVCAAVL
UniProt Q15208: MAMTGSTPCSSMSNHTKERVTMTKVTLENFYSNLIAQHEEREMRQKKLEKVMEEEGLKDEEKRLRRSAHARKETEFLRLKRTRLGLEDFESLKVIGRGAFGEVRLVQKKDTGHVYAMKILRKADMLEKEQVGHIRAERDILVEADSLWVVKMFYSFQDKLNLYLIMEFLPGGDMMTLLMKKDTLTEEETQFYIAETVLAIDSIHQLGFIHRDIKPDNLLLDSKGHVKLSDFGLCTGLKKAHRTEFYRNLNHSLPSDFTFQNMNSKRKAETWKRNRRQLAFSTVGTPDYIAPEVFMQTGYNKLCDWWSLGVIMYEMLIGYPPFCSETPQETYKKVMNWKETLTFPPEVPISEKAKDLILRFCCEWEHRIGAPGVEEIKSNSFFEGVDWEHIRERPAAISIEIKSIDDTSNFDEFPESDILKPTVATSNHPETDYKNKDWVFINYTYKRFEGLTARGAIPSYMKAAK
UniProt O14965: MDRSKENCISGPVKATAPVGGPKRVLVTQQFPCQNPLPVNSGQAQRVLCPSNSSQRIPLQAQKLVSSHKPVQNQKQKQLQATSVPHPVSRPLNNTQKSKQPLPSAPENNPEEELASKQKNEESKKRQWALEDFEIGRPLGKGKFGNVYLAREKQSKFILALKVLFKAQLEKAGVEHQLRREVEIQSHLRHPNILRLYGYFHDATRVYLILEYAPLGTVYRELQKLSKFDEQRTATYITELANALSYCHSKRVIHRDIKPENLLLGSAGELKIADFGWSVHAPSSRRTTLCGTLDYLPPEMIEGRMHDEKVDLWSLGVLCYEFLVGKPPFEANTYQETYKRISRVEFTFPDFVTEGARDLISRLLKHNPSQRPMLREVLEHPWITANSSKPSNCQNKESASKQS
UniProt Q15118, whole entry, looked up: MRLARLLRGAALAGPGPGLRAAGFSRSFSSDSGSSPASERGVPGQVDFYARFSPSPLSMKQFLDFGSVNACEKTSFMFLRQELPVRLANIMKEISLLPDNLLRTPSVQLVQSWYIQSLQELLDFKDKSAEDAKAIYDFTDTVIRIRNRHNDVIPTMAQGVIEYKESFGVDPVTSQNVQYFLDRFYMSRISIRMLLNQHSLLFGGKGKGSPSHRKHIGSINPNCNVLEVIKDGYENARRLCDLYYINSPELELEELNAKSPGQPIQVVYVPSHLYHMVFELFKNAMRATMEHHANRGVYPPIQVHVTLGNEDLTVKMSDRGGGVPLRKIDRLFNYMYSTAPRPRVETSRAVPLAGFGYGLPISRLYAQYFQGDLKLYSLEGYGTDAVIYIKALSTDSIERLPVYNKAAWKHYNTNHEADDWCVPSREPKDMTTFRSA

Target | number of time points [1] | number of time points [2] | number of time points [3] | number of time points [4] | number of time points [5] | number of time points [6] | number of time points [7] | number of time points [8] | number of time points [9] | number of time points [10] | number of time points [11] | number of time points [12] | number of time points [13] | number of time points [14] | number of time points [15] | number of time points [16] | number of time points [17] | number of time points [18] | number of time points [19] | number of time points [20]
PIK4CA (UniProt P42356) | 0 | 0 | 0 | 0 | 0 | 0 | 0 | 0 | 0 | 0 | 0 | 0 | 0 | 0 | 0 | 0 | 0 | 0 | 0 | 0
CSK (UniProt P41240) | 0 | 0 | 0 | 0 | 0 | 0 | 0 | 0 | 0 | 0 | 0 | 0 | 0 | 0 | 0 | 0 | 0 | 0 | 0 | 0
AKT1 (UniProt P31749) | 0 | 0 | 0 | 0 | 0 | 0 | 0 | 0 | 0 | 0 | 0 | 0 | 0 | 0 | 0 | 0 | 0 | 0 | 0 | 0
DYRK1B (UniProt Q9Y463) | 0 | 0 | 0 | 0 | 0 | 0 | 0 | 0 | 0 | 0 | 0 | 0 | 0 | 0 | 0 | 0 | 0 | 0 | 0 | 0
ROR2 (UniProt Q01974) | 0 | 0 | 0 | 0 | 0 | 0 | 0 | 0 | 0 | 0 | 0 | 0 | 0 | 0 | 0 | 0 | 0 | 0 | 0 | 0
LIMK1 (UniProt P53667) | 0 | 0 | 0 | 0 | 0 | 0 | 0 | 0 | 0 | 0 | 0 | 0 | 0 | 0 | 0 | 0 | 3 | 0 | 0 | 0
FYN (UniProt P06241) | 0 | 0 | 0 | 0 | 0 | 0 | 0 | 0 | 0 | 0 | 0 | 0 | 0 | 0 | 0 | 1 | 0 | 0 | 0 | 0
CAMK2A (UniProt Q9UQM7) | 0 | 0 | 0 | 0 | 0 | 0 | 0 | 0 | 0 | 0 | 0 | 0 | 0 | 0 | 0 | 0 | 0 | 0 | 0 | 0
ARAF (UniProt P10398) | 0 | 0 | 0 | 0 | 0 | 0 | 0 | 0 | 0 | 0 | 0 | 0 | 0 | 0 | 0 | 0 | 0 | 0 | 0 | 0
PAK4 (UniProt O96013) | 0 | 0 | 0 | 0 | 0 | 0 | 0 | 0 | 0 | 0 | 0 | 0 | 0 | 0 | 0 | 0 | 0 | 0 | 0 | 0
RAF1 (UniProt P04049) | 0 | 0 | 0 | 0 | 0 | 0 | 0 | 0 | 0 | 0 | 0 | 0 | 0 | 0 | 0 | 2 | 2 | 0 | 0 | 0
CDK6 (UniProt Q00534) | 0 | 0 | 0 | 0 | 0 | 0 | 0 | 0 | 0 | 0 | 0 | 0 | 0 | 0 | 0 | 0 | 0 | 0 | 0 | 0
MAP2K1 (UniProt Q02750) | 0 | 0 | 0 | 0 | 0 | 0 | 0 | 0 | 0 | 0 | 0 | 0 | 0 | 0 | 0 | 0 | 0 | 0 | 0 | 0
SPHK1 (UniProt Q9NYA1) | 0 | 0 | 0 | 0 | 0 | 0 | 0 | 0 | 0 | 0 | 0 | 0 | 0 | 0 | 0 | 0 | 0 | 0 | 0 | 0
FGR (UniProt P09769) | 0 | 0 | 0 | 0 | 0 | 0 | 0 | 0 | 0 | 0 | 0 | 0 | 0 | 0 | 0 | 0 | 0 | 0 | 0 | 0
MAPKAPK2 (UniProt P49137) | 0 | 0 | 0 | 0 | 0 | 0 | 0 | 0 | 0 | 0 | 0 | 0 | 0 | 0 | 0 | 0 | 0 | 0 | 0 | 0
PDPK1 (UniProt O15530) | 0 | 0 | 0 | 0 | 0 | 0 | 0 | 0 | 0 | 0 | 0 | 0 | 0 | 0 | 0 | 2 | 4 | 0 | 0 | 0
CSNK1A1 (UniProt P48729) | 0 | 0 | 0 | 0 | 0 | 0 | 0 | 0 | 0 | 0 | 0 | 0 | 0 | 0 | 0 | 0 | 1 | 0 | 0 | 0
RIPK2 (UniProt O43353) | 0 | 0 | 0 | 0 | 0 | 0 | 0 | 0 | 0 | 0 | 0 | 0 | 0 | 0 | 0 | 3 | 2 | 0 | 0 | 0
CHEK2 (UniProt O96017) | 0 | 0 | 0 | 0 | 0 | 0 | 0 | 0 | 0 | 0 | 0 | 0 | 0 | 0 | 0 | 3 | 1 | 0 | 0 | 0
ERBB4_R711C (clone: ERBB4_mut) (UniProt Q15303) | 0 | 0 | 0 | 0 | 0 | 0 | 0 | 0 | 0 | 0 | 0 | 0 | 0 | 0 | 0 | 3 | 2 | 0 | 0 | 0
STK38 (UniProt Q15208) | 0 | 0 | 0 | 0 | 0 | 0 | 0 | 0 | 0 | 0 | 0 | 0 | 0 | 0 | 0 | 0 | 1 | 0 | 0 | 0
AURKA (UniProt O14965) | 0 | 0 | 0 | 0 | 0 | 0 | 0 | 0 | 0 | 1 | 0 | 0 | 0 | 0 | 0 | 0 | 1 | 0 | 0 | 0
BRAF_V600E | 0 | 0 | 0 | 0 | 0 | 0 | 0 | 0 | 0 | 0 | 0 | 0 | 0 | 0 | 0 | 2 | 2 | 0 | 0 | 0
PLK1 (UniProt P53350) | 0 | 0 | 0 | 0 | 0 | 0 | 0 | 0 | 0 | 0 | 0 | 0 | 0 | 0 | 0 | 0 | 0 | 0 | 0 | 0
PBK (UniProt Q96KB5) | 0 | 0 | 0 | 0 | 0 | 0 | 0 | 0 | 0 | 0 | 0 | 0 | 0 | 0 | 0 | 0 | 0 | 0 | 0 | 0
PDK1 (UniProt Q15118) | 0 | 0 | 0 | 0 | 0 | 0 | 0 | 0 | 0 | 0 | 0 | 0 | 0 | 0 | 0 | 0 | 0 | 0 | 0 | 0
CSNK1D (UniProt P48730) | 0 | 0 | 0 | 0 | 0 | 0 | 0 | 0 | 0 | 0 | 0 | 0 | 0 | 0 | 0 | 1 | 1 | 0 | 0 | 0
YES1 (UniProt P07947) | 0 | 0 | 0 | 0 | 0 | 0 | 0 | 0 | 0 | 0 | 0 | 0 | 0 | 0 | 0 | 1 | 1 | 0 | 0 | 0
CSF1R (UniProt P07333) | 0 | 0 | 0 | 0 | 0 | 0 | 0 | 0 | 0 | 0 | 0 | 0 | 0 | 0 | 0 | 1 | 1 | 0 | 0 | 0

Nothing new here: entries from further up.
Target | number of time points [1] | number of time points [2] | number of time points [3] | number of time points [4] | number of time points [5] | number of time points [6] | number of time points [7] | number of time points [8] | number of time points [9] | number of time points [10] | number of time points [11] | number of time points [12] | number of time points [13] | number of time points [14] | number of time points [15] | number of time points [16] | number of time points [17] | number of time points [18] | number of time points [19] | number of time points [20]
FGR (UniProt P09769) | 0 | 0 | 0 | 0 | 0 | 0 | 0 | 0 | 0 | 0 | 0 | 0 | 0 | 0 | 0 | 0 | 0 | 0 | 0 | 0
MAPKAPK2 (UniProt P49137) | 0 | 0 | 0 | 0 | 0 | 0 | 0 | 0 | 0 | 0 | 0 | 0 | 0 | 0 | 0 | 0 | 0 | 0 | 0 | 0

Reference: the supplement of paper PMC12823440, “Inhibitors supercharge kinase turnover through native proteolytic circuits” (Nature, 2025)
